Results published in paper PMC8068763.
These are yes or no findings as the source states them, for the method shown. For some of these results: In cells and extracts the contact can be indirect. Some binding calls cover weakened binding; strength is not graded here. Sequences can lack the tags named with a protein.

By UniProt entry, the sequences of proteins in these tests, tags left out.
UniProt Q32KD4: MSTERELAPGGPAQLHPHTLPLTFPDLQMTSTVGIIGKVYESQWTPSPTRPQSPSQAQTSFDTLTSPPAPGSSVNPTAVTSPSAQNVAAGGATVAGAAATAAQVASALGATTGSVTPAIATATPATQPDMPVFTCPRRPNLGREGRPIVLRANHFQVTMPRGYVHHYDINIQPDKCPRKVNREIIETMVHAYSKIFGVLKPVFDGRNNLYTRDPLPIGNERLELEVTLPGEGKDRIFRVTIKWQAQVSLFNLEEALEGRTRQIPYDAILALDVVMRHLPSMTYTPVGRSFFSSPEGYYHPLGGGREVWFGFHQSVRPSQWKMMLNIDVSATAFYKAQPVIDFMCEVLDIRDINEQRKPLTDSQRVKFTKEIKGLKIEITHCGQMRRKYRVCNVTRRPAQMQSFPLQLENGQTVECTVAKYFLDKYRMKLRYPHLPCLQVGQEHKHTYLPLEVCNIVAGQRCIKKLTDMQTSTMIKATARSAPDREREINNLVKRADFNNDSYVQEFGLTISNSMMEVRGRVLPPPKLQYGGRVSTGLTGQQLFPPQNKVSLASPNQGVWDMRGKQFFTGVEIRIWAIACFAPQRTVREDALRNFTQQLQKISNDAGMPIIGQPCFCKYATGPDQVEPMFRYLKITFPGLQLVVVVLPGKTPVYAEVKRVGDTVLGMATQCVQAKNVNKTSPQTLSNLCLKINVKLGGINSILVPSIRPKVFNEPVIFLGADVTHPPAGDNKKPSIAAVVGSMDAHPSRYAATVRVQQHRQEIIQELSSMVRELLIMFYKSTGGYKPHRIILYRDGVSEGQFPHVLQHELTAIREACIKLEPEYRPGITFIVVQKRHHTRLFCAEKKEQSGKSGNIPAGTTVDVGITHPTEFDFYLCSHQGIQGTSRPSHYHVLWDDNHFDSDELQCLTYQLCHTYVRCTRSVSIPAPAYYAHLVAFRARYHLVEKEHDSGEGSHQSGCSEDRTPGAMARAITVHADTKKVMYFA

T1: Bag of marbles (Bam), full length, yeast two-hybrid fusion (Drosophila) (UniProt P22745)
T1 sequence: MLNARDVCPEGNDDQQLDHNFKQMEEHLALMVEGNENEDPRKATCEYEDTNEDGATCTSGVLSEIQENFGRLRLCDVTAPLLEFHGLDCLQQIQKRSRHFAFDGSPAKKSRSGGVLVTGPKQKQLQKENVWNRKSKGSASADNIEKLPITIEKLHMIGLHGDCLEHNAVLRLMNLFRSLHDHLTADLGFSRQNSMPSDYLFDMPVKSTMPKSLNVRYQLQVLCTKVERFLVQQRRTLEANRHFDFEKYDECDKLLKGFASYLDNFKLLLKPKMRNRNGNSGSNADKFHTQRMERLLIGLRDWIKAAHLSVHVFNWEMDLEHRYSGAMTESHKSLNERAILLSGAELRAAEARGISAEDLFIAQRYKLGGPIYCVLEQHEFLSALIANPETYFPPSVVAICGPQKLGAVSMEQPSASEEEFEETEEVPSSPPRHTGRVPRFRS

T2: Flag-tagged Bam (Drosophila) (UniProt P22745)
T2 sequence: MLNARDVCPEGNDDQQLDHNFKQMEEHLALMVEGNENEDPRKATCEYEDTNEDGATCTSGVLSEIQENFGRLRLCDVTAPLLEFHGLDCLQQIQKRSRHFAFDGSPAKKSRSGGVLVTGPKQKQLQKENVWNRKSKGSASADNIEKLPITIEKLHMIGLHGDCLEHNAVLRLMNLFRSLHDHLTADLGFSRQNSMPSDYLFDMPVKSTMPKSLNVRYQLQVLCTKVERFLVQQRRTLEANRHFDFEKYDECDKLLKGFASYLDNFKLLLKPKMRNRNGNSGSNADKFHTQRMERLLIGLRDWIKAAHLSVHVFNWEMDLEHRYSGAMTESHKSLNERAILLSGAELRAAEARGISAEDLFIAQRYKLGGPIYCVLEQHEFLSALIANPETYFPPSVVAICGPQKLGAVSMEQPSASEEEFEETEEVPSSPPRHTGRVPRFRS


Key:
[1] = target: T1, Bag of marbles (Bam), full length, yeast two-hybrid fusion (Drosophila); assay: two-hybrid; LexA DBD and GAD (pACT2) fusions in yeast YPH500 with pSH18-34 lexAop-LacZ reporter; X-gal patching on glucose plates 24-48 h, then liquid beta-galactosidase assay
[2] = target: Argonaute 1 (AGO1), full length, yeast two-hybrid fusion (Drosophila) (UniProt Q32KD4); assay: as above
[3] = target: T2, Flag-tagged Bam (Drosophila); assay: co-IP; lysates of transfected S2 cells (72 h), RIPA buffer, anti-FLAG M2 agarose beads, 4 °C overnight, Western blot

binding [1] | binding [2] | binding [3] | Binder
binds | binds |  | Brain tumor (Brat), full length, yeast two-hybrid fusion (protein, UniProt Q8MQJ9 1-1037) MASSPTPSLDSMRGGANSIESYEHAGYLSDSPLTLSGSSPPASDSAICSDEYTGGSSVKSRSEVTVINGHHPISASVSSSSSASSSSCSSSSSSSSSSSSSSSSTSGLSGCGSTSSSVISANNVASSNGPGVIGSNLQSSNNGGNSGISSLVVGAGKGSNSSSNSSSSNTSANGSPPRCTACKSKCSDAVAKCFECQSYLCANCVTAHEFMHCFNGHNVCLIKGFEASTTGTPLSVGSPSNNPASNEFKYASSLTMMLQQQQQLDSQQQQQQQQLLPAQPMSQLSKIVLAAAAQANSQEQQREDSIYGSLHPQQQQQQQQQQQRQLFCPRHKQELLKFSCRTCCILVCKECIVLEHSTGLHELENVQSPGMTTSTGSTANESALQTLLADMRGKIGEIVGIAGNSDQNLTKVKLQYQKAHNELNETHQFFASMLDERKTELLKELETLYTAKVNSNNSWQQRSRDLIDKGLATCEAVERSPAPPSSLLTEALLLRKSLEQQLQTGIQEMQLPFEIEFMSNYQSIQAGVRNTFGYIRANSSDGGPTGMSLTSNGHGKQPPIARPTQSASNSSASSAGSGHHGHHQQSHHHGHHNHHQTAHHQQLQAQSSLHGLGLGLSGASLLDSSSSAGGAVGAFSNGGLLLGGRDRNALAVEQHFGELMPKRGGGGYTGSNGSATSAVAHYNPYEKWSNGGSDNLFSSVTSGVSGSSAVADAFASLSAVGGSVVSGAGAGGSTVSSESLLDLTNKLLSATIYPPKSQIKRQKMIYHCKFGEFGVMEGQFTEPSGVAVNAQNDIIVADTNNHRIQIFDKEGRFKFQFGECGKRDSQLLYPNRVAVVRNSGDIIVTERSPTHQIQIYNQYGQFVRKFGATILQHPRGVTVDNKGRIIVVECKVMRVIIFDQNGNVLHKFGCSKHLEFPNGVVVNDKQEIFISDNRAHCVKVFNYEGQYLRQIGGEGITNYPIGVGINSNGEILIADNHNNFNLTIFTQDGQLISALESKVKHAQCFDVALMDDGSVVLASKDYRLYIYRYVQLAPVGM
 |  | binds | Brat in S2 cells (protein, UniProt Q8MQJ9 1-1037) MASSPTPSLDSMRGGANSIESYEHAGYLSDSPLTLSGSSPPASDSAICSDEYTGGSSVKSRSEVTVINGHHPISASVSSSSSASSSSCSSSSSSSSSSSSSSSSTSGLSGCGSTSSSVISANNVASSNGPGVIGSNLQSSNNGGNSGISSLVVGAGKGSNSSSNSSSSNTSANGSPPRCTACKSKCSDAVAKCFECQSYLCANCVTAHEFMHCFNGHNVCLIKGFEASTTGTPLSVGSPSNNPASNEFKYASSLTMMLQQQQQLDSQQQQQQQQLLPAQPMSQLSKIVLAAAAQANSQEQQREDSIYGSLHPQQQQQQQQQQQRQLFCPRHKQELLKFSCRTCCILVCKECIVLEHSTGLHELENVQSPGMTTSTGSTANESALQTLLADMRGKIGEIVGIAGNSDQNLTKVKLQYQKAHNELNETHQFFASMLDERKTELLKELETLYTAKVNSNNSWQQRSRDLIDKGLATCEAVERSPAPPSSLLTEALLLRKSLEQQLQTGIQEMQLPFEIEFMSNYQSIQAGVRNTFGYIRANSSDGGPTGMSLTSNGHGKQPPIARPTQSASNSSASSAGSGHHGHHQQSHHHGHHNHHQTAHHQQLQAQSSLHGLGLGLSGASLLDSSSSAGGAVGAFSNGGLLLGGRDRNALAVEQHFGELMPKRGGGGYTGSNGSATSAVAHYNPYEKWSNGGSDNLFSSVTSGVSGSSAVADAFASLSAVGGSVVSGAGAGGSTVSSESLLDLTNKLLSATIYPPKSQIKRQKMIYHCKFGEFGVMEGQFTEPSGVAVNAQNDIIVADTNNHRIQIFDKEGRFKFQFGECGKRDSQLLYPNRVAVVRNSGDIIVTERSPTHQIQIYNQYGQFVRKFGATILQHPRGVTVDNKGRIIVVECKVMRVIIFDQNGNVLHKFGCSKHLEFPNGVVVNDKQEIFISDNRAHCVKVFNYEGQYLRQIGGEGITNYPIGVGINSNGEILIADNHNNFNLTIFTQDGQLISALESKVKHAQCFDVALMDDGSVVLASKDYRLYIYRYVQLAPVGM
 | no binding |  | Bag of marbles (Bam), full length, yeast two-hybrid fusion (protein, UniProt P22745 1-442) MLNARDVCPEGNDDQQLDHNFKQMEEHLALMVEGNENEDPRKATCEYEDTNEDGATCTSGVLSEIQENFGRLRLCDVTAPLLEFHGLDCLQQIQKRSRHFAFDGSPAKKSRSGGVLVTGPKQKQLQKENVWNRKSKGSASADNIEKLPITIEKLHMIGLHGDCLEHNAVLRLMNLFRSLHDHLTADLGFSRQNSMPSDYLFDMPVKSTMPKSLNVRYQLQVLCTKVERFLVQQRRTLEANRHFDFEKYDECDKLLKGFASYLDNFKLLLKPKMRNRNGNSGSNADKFHTQRMERLLIGLRDWIKAAHLSVHVFNWEMDLEHRYSGAMTESHKSLNERAILLSGAELRAAEARGISAEDLFIAQRYKLGGPIYCVLEQHEFLSALIANPETYFPPSVVAICGPQKLGAVSMEQPSASEEEFEETEEVPSSPPRHTGRVPRFRS
